According to PMC10497826:
Results are given in words; binding and its absence hold for the method and conditions named. Binding seen in cells or lysates may run through a third protein. Some results given as binding are weak or reduced against the parent protein; the word gives no strength.

Chains of the proteins cited; added tags and fusions are not shown.
UniProt P46379: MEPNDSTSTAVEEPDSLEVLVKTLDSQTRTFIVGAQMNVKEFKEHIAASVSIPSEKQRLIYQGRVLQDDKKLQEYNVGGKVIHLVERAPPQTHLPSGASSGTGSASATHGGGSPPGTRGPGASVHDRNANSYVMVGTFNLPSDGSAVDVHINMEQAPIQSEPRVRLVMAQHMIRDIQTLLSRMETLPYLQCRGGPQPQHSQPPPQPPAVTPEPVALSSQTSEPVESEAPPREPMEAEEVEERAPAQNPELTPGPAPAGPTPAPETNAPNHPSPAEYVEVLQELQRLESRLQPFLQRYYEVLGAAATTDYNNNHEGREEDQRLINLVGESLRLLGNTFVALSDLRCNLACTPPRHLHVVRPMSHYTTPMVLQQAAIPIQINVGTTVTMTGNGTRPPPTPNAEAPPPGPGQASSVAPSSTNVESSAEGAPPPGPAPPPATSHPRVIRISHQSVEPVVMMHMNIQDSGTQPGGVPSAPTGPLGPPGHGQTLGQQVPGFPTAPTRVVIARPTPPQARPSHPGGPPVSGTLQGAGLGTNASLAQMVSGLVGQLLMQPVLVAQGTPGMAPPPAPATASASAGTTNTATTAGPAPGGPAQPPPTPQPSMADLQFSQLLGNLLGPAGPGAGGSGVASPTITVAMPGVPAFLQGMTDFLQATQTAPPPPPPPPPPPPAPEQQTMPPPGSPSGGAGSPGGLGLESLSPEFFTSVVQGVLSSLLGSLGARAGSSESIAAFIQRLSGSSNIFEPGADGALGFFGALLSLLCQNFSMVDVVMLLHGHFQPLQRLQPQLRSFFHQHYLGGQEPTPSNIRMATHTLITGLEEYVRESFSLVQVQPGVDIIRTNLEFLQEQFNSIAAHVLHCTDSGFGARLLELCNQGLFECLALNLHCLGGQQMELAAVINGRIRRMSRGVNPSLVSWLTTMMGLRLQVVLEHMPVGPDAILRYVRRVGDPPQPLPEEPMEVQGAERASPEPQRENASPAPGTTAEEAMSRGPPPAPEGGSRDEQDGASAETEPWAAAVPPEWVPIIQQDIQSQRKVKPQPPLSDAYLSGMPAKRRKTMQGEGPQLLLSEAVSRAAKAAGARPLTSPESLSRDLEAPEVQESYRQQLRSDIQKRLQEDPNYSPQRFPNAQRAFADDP
UniProt P10415: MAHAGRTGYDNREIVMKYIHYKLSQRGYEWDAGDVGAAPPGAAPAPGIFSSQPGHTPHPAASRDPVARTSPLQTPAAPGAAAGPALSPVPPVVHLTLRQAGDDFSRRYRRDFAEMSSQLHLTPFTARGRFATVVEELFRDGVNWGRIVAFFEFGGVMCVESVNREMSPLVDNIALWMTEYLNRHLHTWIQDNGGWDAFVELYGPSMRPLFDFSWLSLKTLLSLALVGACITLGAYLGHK

What was measured:
[1] = biological target: BAG6, endogenous in MDA-MB-231 cells (human (endogenous in MDA-MB-231)) (UniProt P46379); assay: co-IP; MDA-MB-231 lysates, immunoprecipitation with anti-BAG6 and reverse co-IP of BCL2, immunoblot with anti-BCL2 or BAG6 (Figure 6B; endogenous by the legend)
[2] = biological target: Flag-tagged BAG6 (in MDA-MB-231) (UniProt P46379); assay: co-IP; MDA-MB-231 co-transfected with Flag-BAG6 and His-BCL2 plasmids; immunoprecipitation with anti-BAG6, immunoblot with anti-BCL2 or BAG6
[3] = biological target: T1, USP19 (ubiquitin-specific protease 19), endogenous in HEK-293T (human (endogenous in HEK-293T)) (UniProt O94966); assay: co-IP; endogenous proteins, HEK-293T lysates, immunoprecipitation with anti-USP19, immunoblot with anti-BAG6 or USP19; RIPA lysis buffer
T1 sequence: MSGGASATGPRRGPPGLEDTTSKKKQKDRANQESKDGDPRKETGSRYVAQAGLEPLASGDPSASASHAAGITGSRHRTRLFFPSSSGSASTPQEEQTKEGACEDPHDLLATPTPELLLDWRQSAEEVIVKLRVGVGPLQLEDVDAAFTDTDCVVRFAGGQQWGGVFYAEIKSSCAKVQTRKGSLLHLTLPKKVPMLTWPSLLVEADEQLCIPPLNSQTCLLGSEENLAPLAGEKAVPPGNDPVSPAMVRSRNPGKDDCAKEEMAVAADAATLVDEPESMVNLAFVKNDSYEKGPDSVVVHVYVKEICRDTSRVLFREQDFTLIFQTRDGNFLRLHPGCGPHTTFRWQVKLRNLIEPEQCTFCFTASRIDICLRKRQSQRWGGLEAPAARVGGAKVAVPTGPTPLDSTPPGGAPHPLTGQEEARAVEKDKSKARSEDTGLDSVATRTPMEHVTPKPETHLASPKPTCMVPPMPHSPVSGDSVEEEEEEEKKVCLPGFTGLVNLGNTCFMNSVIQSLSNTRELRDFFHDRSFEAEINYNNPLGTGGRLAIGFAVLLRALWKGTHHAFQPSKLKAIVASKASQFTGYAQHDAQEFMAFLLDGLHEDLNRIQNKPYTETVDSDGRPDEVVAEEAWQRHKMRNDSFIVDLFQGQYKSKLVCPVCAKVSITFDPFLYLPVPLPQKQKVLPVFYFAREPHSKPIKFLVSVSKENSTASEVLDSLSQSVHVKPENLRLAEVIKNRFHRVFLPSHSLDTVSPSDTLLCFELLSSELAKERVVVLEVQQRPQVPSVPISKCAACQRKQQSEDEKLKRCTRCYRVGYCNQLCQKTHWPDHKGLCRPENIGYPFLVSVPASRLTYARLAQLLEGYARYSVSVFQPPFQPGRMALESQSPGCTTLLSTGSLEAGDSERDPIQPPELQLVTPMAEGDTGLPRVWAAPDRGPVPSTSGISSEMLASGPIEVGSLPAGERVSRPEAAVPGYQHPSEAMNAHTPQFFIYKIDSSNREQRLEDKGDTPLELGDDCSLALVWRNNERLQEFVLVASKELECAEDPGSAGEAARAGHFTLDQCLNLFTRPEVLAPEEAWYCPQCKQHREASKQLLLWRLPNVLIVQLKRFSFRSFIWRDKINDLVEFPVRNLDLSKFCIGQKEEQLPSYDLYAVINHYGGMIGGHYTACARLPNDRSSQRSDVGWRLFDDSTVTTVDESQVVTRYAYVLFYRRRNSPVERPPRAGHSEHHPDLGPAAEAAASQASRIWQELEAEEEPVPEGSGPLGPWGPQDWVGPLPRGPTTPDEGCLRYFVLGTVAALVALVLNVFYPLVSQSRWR

[4] = biological target: BCL2 (B-cell lymphoma 2), endogenous in MDA-MB-231 (human (endogenous in MDA-MB-231)) (UniProt P10415); assay: co-IP; MDA-MB-231 lysates, immunoprecipitation with anti-BAG6 and reverse co-IP of BCL2, immunoblot with anti-BCL2 or BAG6 (Figure 6B; endogenous by the legend)
[5] = biological target: T2, USP19 in MDA-MB-231 cells (human (endogenous in MDA-MB-231)) (UniProt O94966); assay: co-IP; MDA-MB-231 cells, IP/WB of USP19 and BAG6
T2 sequence: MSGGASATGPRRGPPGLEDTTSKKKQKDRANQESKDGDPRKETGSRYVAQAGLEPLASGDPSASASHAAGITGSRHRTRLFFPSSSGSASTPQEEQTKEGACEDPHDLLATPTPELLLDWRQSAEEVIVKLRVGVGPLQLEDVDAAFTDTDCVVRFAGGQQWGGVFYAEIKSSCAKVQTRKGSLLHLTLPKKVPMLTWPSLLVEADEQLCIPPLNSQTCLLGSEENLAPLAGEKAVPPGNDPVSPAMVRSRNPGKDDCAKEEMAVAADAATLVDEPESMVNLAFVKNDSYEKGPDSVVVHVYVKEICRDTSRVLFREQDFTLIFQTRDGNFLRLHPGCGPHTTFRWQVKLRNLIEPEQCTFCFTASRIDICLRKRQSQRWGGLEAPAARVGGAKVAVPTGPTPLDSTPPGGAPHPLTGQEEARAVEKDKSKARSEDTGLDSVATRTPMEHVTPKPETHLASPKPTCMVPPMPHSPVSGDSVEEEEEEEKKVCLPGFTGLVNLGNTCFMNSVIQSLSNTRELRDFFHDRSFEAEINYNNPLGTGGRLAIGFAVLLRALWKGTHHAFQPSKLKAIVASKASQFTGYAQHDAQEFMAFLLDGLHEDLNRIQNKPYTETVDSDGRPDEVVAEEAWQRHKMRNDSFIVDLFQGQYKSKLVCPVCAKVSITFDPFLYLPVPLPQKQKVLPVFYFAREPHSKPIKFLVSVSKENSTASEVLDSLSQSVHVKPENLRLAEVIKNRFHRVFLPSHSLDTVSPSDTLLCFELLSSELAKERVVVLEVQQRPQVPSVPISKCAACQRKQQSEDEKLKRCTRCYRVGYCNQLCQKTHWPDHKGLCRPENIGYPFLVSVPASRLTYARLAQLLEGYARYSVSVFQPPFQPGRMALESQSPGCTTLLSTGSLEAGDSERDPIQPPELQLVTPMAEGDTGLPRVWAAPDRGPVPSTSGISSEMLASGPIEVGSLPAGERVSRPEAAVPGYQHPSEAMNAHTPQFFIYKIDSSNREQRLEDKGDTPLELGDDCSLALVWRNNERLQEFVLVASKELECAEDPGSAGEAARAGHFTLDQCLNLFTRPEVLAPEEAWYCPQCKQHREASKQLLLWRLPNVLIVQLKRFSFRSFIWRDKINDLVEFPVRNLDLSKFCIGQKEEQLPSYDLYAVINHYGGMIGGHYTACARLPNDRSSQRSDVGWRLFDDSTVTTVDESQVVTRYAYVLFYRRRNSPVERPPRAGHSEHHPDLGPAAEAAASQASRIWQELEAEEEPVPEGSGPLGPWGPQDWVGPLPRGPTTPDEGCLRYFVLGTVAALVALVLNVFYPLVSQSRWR

[6] = biological target: T1, USP19 (ubiquitin-specific protease 19), endogenous in HEK-293T (human (endogenous in HEK-293T)); assay: co-IP; HEK-293T, ectopically expressed BAG6; USP19 immune complex and reverse BAG6 immune complex, IP-Western blot (Figure 3H)
[7] = biological target: T3, USP19 in MCF-10A cells (human (endogenous in MCF-10A)) (UniProt O94966); assay: co-IP; MCF-10A cells, IP/WB of USP19 and BAG6
T3 sequence: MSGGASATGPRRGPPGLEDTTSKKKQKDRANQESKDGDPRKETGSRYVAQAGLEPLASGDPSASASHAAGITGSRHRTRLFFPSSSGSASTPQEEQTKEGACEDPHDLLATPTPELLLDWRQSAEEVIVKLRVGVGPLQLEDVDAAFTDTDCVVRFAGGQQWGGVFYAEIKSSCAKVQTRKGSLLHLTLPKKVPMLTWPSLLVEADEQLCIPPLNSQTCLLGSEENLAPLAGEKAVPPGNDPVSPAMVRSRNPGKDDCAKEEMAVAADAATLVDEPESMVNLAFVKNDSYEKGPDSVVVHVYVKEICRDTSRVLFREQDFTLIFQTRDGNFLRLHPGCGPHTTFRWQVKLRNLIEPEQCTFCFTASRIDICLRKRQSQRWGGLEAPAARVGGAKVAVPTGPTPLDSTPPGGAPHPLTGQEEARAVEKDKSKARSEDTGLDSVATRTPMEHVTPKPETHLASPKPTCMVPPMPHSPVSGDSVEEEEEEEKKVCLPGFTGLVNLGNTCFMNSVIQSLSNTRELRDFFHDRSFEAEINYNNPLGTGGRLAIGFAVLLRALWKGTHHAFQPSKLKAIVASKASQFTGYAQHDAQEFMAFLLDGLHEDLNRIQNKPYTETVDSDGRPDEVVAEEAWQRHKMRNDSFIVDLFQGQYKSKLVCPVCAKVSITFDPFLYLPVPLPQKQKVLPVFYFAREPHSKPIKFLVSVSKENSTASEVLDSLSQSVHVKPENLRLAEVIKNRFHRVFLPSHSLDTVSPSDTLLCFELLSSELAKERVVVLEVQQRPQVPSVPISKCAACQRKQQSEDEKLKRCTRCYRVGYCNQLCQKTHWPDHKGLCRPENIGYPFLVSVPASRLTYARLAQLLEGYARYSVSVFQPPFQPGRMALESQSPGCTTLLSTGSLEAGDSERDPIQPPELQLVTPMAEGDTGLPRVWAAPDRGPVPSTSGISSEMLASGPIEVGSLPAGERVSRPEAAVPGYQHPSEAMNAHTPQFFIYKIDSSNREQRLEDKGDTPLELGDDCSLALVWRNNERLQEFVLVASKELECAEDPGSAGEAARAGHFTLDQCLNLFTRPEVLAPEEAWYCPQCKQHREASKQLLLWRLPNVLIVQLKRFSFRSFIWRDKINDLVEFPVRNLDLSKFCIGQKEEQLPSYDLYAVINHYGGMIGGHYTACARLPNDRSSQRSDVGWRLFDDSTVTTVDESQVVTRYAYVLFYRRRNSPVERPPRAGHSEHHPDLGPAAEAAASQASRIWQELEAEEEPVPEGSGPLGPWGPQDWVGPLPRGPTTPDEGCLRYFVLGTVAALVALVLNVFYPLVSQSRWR

[8] = biological target: Flag-tagged BAG6 (in HEK-293T) (UniProt P46379); assay: co-IP; HEK-293T, ectopically expressed BAG6; USP19 immune complex and reverse BAG6 immune complex, IP-Western blot (Figure 3H)

## BCL2 (B-cell lymphoma 2), endogenous in MDA-MB-231 (from UniProt P10415 1-239)
[1]
  binding: binds

## His-BCL2 (from UniProt P10415 1-239)
[2]
  binding: binds

## BAG6 (BAG family molecular chaperone regulator 6), endogenous in HEK-293T (from UniProt P46379 1-1132)
[3]
  binding: binds

## BAG6, endogenous in MDA-MB-231 cells (from UniProt P46379 1-1132)
[4]
  binding: binds
[5]
  binding: binds

## Flag-tagged BAG6 (in HEK-293T) (from UniProt P46379 1-1132)
[6]
  binding: binds

## BAG6 in MCF-10A cells (from UniProt P46379 1-1132)
[7]
  binding: binds

B1: USP19 (ubiquitin-specific protease 19), endogenous in HEK-293T (enzyme, UniProt O94966 1-1318)
chain: MSGGASATGPRRGPPGLEDTTSKKKQKDRANQESKDGDPRKETGSRYVAQAGLEPLASGDPSASASHAAGITGSRHRTRLFFPSSSGSASTPQEEQTKEGACEDPHDLLATPTPELLLDWRQSAEEVIVKLRVGVGPLQLEDVDAAFTDTDCVVRFAGGQQWGGVFYAEIKSSCAKVQTRKGSLLHLTLPKKVPMLTWPSLLVEADEQLCIPPLNSQTCLLGSEENLAPLAGEKAVPPGNDPVSPAMVRSRNPGKDDCAKEEMAVAADAATLVDEPESMVNLAFVKNDSYEKGPDSVVVHVYVKEICRDTSRVLFREQDFTLIFQTRDGNFLRLHPGCGPHTTFRWQVKLRNLIEPEQCTFCFTASRIDICLRKRQSQRWGGLEAPAARVGGAKVAVPTGPTPLDSTPPGGAPHPLTGQEEARAVEKDKSKARSEDTGLDSVATRTPMEHVTPKPETHLASPKPTCMVPPMPHSPVSGDSVEEEEEEEKKVCLPGFTGLVNLGNTCFMNSVIQSLSNTRELRDFFHDRSFEAEINYNNPLGTGGRLAIGFAVLLRALWKGTHHAFQPSKLKAIVASKASQFTGYAQHDAQEFMAFLLDGLHEDLNRIQNKPYTETVDSDGRPDEVVAEEAWQRHKMRNDSFIVDLFQGQYKSKLVCPVCAKVSITFDPFLYLPVPLPQKQKVLPVFYFAREPHSKPIKFLVSVSKENSTASEVLDSLSQSVHVKPENLRLAEVIKNRFHRVFLPSHSLDTVSPSDTLLCFELLSSELAKERVVVLEVQQRPQVPSVPISKCAACQRKQQSEDEKLKRCTRCYRVGYCNQLCQKTHWPDHKGLCRPENIGYPFLVSVPASRLTYARLAQLLEGYARYSVSVFQPPFQPGRMALESQSPGCTTLLSTGSLEAGDSERDPIQPPELQLVTPMAEGDTGLPRVWAAPDRGPVPSTSGISSEMLASGPIEVGSLPAGERVSRPEAAVPGYQHPSEAMNAHTPQFFIYKIDSSNREQRLEDKGDTPLELGDDCSLALVWRNNERLQEFVLVASKELECAEDPGSAGEAARAGHFTLDQCLNLFTRPEVLAPEEAWYCPQCKQHREASKQLLLWRLPNVLIVQLKRFSFRSFIWRDKINDLVEFPVRNLDLSKFCIGQKEEQLPSYDLYAVINHYGGMIGGHYTACARLPNDRSSQRSDVGWRLFDDSTVTTVDESQVVTRYAYVLFYRRRNSPVERPPRAGHSEHHPDLGPAAEAAASQASRIWQELEAEEEPVPEGSGPLGPWGPQDWVGPLPRGPTTPDEGCLRYFVLGTVAALVALVLNVFYPLVSQSRWR
[8]
  binding: binds
